The target of the assay is bovine milk lactoferrin (bovine). Briefly: far-Western, overlay or dot blot; reduced purified prey proteins (from 40 µM stocks, 3 µL) dotted on nitrocellulose; blocked with 5% skim milk in TBST; incubated with 0.2 µM reduced P5 in 20 mM Tris-HCl pH 7.6, 150 mM NaCl, 0.05% Tween 20 at 4 °C for 3 h; bound P5 detected with anti-P5 antiserum; both purified.

Results are given in words; binding and its absence hold for the method and conditions named.

B1: P5 (reduced form) (enzyme, UniProt Q15084 20-440)
chain: LYSSSDDVIELTPSNFNREVIQSDSLWLVEFYAPWCGHCQRLTPEWKKAATALKDVVKVGAVDADKHHSLGGQYGVQGFPTIKIFGSNKNRPEDYQGGRTGEAIVDAALSALRQLVKDRLGGRSGGYSSGKQGRSDSSSKKDVIELTDDSFDKNVLDSEDVWMVEFYAPWCGHCKNLEPEWAAAASEVKEQTKGKVKLAAVDATVNQVLASRYGIRGFPTIKIFQKGESPVDYDGGRTRSDIVSRALDLFSDNAPPPELLEIINEDIAKRTCEEHQLCVVAVLPHILDTGAAGRNSYLEVLLKLADKYKKKMWGWLWTEAGAQSELETALGIGGFGYPAMAAINARKMKFALLKGSFSEQGINEFLRELSFGRGSTAPVGGGAFPTIVEREPWDGRDGELPVEDDIDLSDVELDDLGKDEL
Regarding B1, the binding entry is reported as “no binding (tested: 0.2 μM)”.

The values above are taken from publication PMC8615271.
